These are yes or no findings as the source states them, for the method shown. In cells and extracts the contact can be indirect. Some results given as binding are weak or reduced against the parent protein; the word gives no strength.
Target: T1, IκB kinase α (IKKα) (human (endogenous in HT29)) (UniProt O15111)
T1 sequence: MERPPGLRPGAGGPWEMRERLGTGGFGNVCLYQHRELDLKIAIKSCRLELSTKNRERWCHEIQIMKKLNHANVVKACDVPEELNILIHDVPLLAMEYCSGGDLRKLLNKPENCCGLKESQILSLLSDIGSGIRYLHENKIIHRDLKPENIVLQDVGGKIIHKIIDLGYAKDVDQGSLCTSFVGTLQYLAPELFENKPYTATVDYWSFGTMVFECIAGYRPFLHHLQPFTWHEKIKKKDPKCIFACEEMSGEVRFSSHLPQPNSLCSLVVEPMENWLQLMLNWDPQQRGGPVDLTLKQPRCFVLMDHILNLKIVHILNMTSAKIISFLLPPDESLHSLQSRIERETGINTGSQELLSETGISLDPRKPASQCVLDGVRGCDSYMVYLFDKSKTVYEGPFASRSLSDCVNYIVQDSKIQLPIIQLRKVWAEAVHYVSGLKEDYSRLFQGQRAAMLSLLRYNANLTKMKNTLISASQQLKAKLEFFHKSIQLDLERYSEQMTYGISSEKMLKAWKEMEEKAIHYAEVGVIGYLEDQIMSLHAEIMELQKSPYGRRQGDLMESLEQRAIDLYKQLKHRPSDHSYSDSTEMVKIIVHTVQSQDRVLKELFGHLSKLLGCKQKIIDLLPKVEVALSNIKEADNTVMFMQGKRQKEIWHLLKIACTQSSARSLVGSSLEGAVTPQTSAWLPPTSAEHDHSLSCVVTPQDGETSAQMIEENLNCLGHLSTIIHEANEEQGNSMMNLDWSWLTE
Test: co-IP; 0.5 µg anti-IKKα antibody (or naïve rabbit IgG) on Protein A/G coated wells; 500 µg unstimulated HT29 lysate; washed twice with 50 mM Tris (pH 7.5), 150 mM NaCl and twice with kinase wash buffer; immunoblot for IKKα and IKKβ

- binding: binds
B1: IκB kinase β (IKKβ) (enzyme, UniProt O14920 1-756)
chain: MSWSPSLTTQTCGAWEMKERLGTGGFGNVIRWHNQETGEQIAIKQCRQELSPRNRERWCLEIQIMRRLTHPNVVAARDVPEGMQNLAPNDLPLLAMEYCQGGDLRKYLNQFENCCGLREGAILTLLSDIASALRYLHENRIIHRDLKPENIVLQQGEQRLIHKIIDLGYAKELDQGSLCTSFVGTLQYLAPELLEQQKYTVTVDYWSFGTLAFECITGFRPFLPNWQPVQWHSKVRQKSEVDIVVSEDLNGTVKFSSSLPYPNNLNSVLAERLEKWLQLMLMWHPRQRGTDPTYGPNGCFKALDDILNLKLVHILNMVTGTIHTYPVTEDESLQSLKARIQQDTGIPEEDQELLQEAGLALIPDKPATQCISDGKLNEGHTLDMDLVFLFDNSKITYETQISPRPQPESVSCILQEPKRNLAFFQLRKVWGQVWHSIQTLKEDCNRLQQGQRAAMMNLLRNNSCLSKMKNSMASMSQQLKAKLDFFKTSIQIDLEKYSEQTEFGITSDKLLLAWREMEQAVELCGRENEVKLLVERMMALQTDIVDLQRSPMGRKQGGTLDDLEEQARELYRRLREKPRDQRTEGDSQEMVRLLLQAIQSFEKKVRVIYTQLSKTVVCKQKALELLPKVEEVVSLMNEDEKTVVRLQEKRQKELWNLLKIACSKVRGPVSGSPDSMNASRLSQPGQLMSQPSTASNSLPEPAKKSEELVAEAHNLCTLLENAIQDTVREQDQSFTALDWSWLQTEEEEHSCLEQAS
